Measurements reported in PubChem BioAssay AID1259308 (NCATS, 2017)
Aim: 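Candidate targets for better recombinant protein yield in mammalian cells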 (primary screen). System: human HEK293 embryonic kidney cells stably expressing firefly luciferase (HEK-CMV-Luc2-Hygro). Reagent: single siRNA against human genes, 0.8 pmol siRNA per well. Duration: 72 h. Detection: 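Reporter luminescence and viable-cell signal on separate replicate plates, given as percent of non-targeting control and median/MAD z-scores, plus per-cell luciferase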. Scale: total luciferase, z-score and total luciferase, % of control: higher = more reporter protein produced. Hit rule: 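An siRNA counts as active if its total luciferase robust z-score exceeds 3; genes with two or more such siRNAs out of three were retested with fresh siRNAs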. Calls: active = raised luciferase; inactive = no rise.
Shown is an unselected part of about 59,000 deposited reagents. About 1,510 of all reagents (2.6%) count as active. 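Calls use total luciferase alone and ignore viability, so some active siRNAs may act by altering cell number.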 Not all columns of the deposit are shown.

With knock-down of ZFYVE26 [SID160736404], the record shows total luciferase, z-score 0.444; total luciferase, % of control 90.7; inactive.
With knock-down of ZFYVE26 [SID160736405], the record shows total luciferase, z-score 0.964; total luciferase, % of control 101; inactive.
Against ZFYVE26 [SID160736406], the values are total luciferase, z-score -1.04; total luciferase, % of control 61.3; inactive.
Silencing of SPAG11B [SID160727878] gave: total luciferase, z-score -0.118; total luciferase, % of control 79.5; inactive.
SPAG11B [SID160727879] showed total luciferase, z-score -0.495; total luciferase, % of control 72; inactive.
SPAG11B [SID160727880] gave total luciferase, z-score -0.0222; total luciferase, % of control 81.4; inactive.
With knock-down of LTV1 [SID160753011], the screen gave total luciferase, z-score -1.04; total luciferase, % of control 61.3; inactive.
After knock-down of LTV1 [SID160753012] the results were total luciferase, z-score -0.315; total luciferase, % of control 75.6; inactive.
LTV1 [SID160753013] showed total luciferase, z-score -0.85; total luciferase, % of control 65; inactive.
Knock-down of VAMP2 [SID160717577] came out at: total luciferase, z-score -1.46; total luciferase, % of control 52.8; inactive.
Depletion of VAMP2 [SID160717578] gave: total luciferase, z-score 1.63; total luciferase, % of control 114; inactive.
After knock-down of VAMP2 [SID160717579] the results were total luciferase, z-score 0.114; total luciferase, % of control 84.2; inactive.
For BMS1P15 [SID160766953] the deposit lists total luciferase, z-score 0.281; total luciferase, % of control 87.5; inactive.
With knock-down of BMS1P15 [SID160766954], the record shows total luciferase, z-score -0.241; total luciferase, % of control 77.1; inactive.
Silencing of BMS1P15 [SID160766955] resulted in: total luciferase, z-score 1.89; total luciferase, % of control 120; inactive.
With knock-down of NDUFAF2 [SID160754145] the results were total luciferase, z-score -0.353; total luciferase, % of control 74.9; inactive.
After knock-down of NDUFAF2 [SID160754146] the results were total luciferase, z-score -0.938; total luciferase, % of control 63.2; inactive.
For NDUFAF2 [SID160754147] the deposit lists total luciferase, z-score 2.37; total luciferase, % of control 129; inactive.
PARD6A [SID160739771] scored total luciferase, z-score 0.108; total luciferase, % of control 84; inactive.
Against PARD6A [SID160739772] the deposit lists total luciferase, z-score 0.0379; total luciferase, % of control 82.6; inactive.
Depletion of PARD6A [SID160739773] resulted in: total luciferase, z-score 2.13; total luciferase, % of control 124; inactive.
With knock-down of ELOA2 [SID160740349], the record shows total luciferase, z-score 0.842; total luciferase, % of control 98.6; inactive.
ELOA2 [SID160740350] scored total luciferase, z-score -0.794; total luciferase, % of control 66.1; inactive.
For ELOA2 [SID160740351], the entry reads total luciferase, z-score -0.798; total luciferase, % of control 66; inactive.
Silencing of BRPF1 [SID160719424] resulted in: total luciferase, z-score 1.22; total luciferase, % of control 106; inactive.
Depletion of BRPF1 [SID160719425] resulted in: total luciferase, z-score -1.57; total luciferase, % of control 50.8; inactive.
BRPF1 [SID160719426] scored total luciferase, z-score 0.198; total luciferase, % of control 85.8; inactive.
Against EPX [SID160719798], the entry reads total luciferase, z-score -1.16; total luciferase, % of control 58.8; inactive.
For EPX [SID160719799], the values are total luciferase, z-score 0.128; total luciferase, % of control 84.4; inactive.
With knock-down of EPX [SID160719800] the results were total luciferase, z-score 0.536; total luciferase, % of control 92.5; inactive.
Knock-down of NAT8 [SID160775049] came out at: total luciferase, z-score -2.13; total luciferase, % of control 39.4; inactive.
Against NAT8 [SID160775060], the entry reads total luciferase, z-score 1.05; total luciferase, % of control 103; inactive.
Depletion of NAT8 [SID160775071] came out at: total luciferase, z-score 2.33; total luciferase, % of control 128; inactive.
Knock-down of SLC25A26 [SID160755175] resulted in: total luciferase, z-score 0.00176; total luciferase, % of control 81.9; inactive.
After knock-down of SLC25A26 [SID160755176], the screen gave total luciferase, z-score -0.206; total luciferase, % of control 77.8; inactive.
Knock-down of SLC25A26 [SID160755177] gave: total luciferase, z-score -0.223; total luciferase, % of control 77.4; inactive.
With knock-down of DCK [SID160722753], the screen gave total luciferase, z-score 0.281; total luciferase, % of control 87.5; inactive.
DCK [SID160722859] gave total luciferase, z-score -0.0463; total luciferase, % of control 81; inactive.
After knock-down of DCK [SID160722967], the screen gave total luciferase, z-score -0.639; total luciferase, % of control 69.2; inactive.
Against TYW1 [SID160731500], the entry reads total luciferase, z-score -1.75; total luciferase, % of control 47; inactive.
Depletion of TYW1 [SID160743355] came out at: total luciferase, z-score -1.98; total luciferase, % of control 42.5; inactive.
TYW1 [SID160743356] showed total luciferase, z-score 1.46; total luciferase, % of control 111; inactive.

Records listed so far whose gene name begins with S or s:
SPAG11B [SID160727878]: total luciferase, z-score = -0.118; total luciferase, % of control = 79.5; Call = inactive
SPAG11B [SID160727879]: total luciferase, z-score = -0.495; total luciferase, % of control = 72; Call = inactive
SPAG11B [SID160727880]: total luciferase, z-score = -0.0222; total luciferase, % of control = 81.4; Call = inactive
SLC25A26 [SID160755175]: total luciferase, z-score = 0.00176; total luciferase, % of control = 81.9; Call = inactive
SLC25A26 [SID160755176]: total luciferase, z-score = -0.206; total luciferase, % of control = 77.8; Call = inactive
SLC25A26 [SID160755177]: total luciferase, z-score = -0.223; total luciferase, % of control = 77.4; Call = inactive
